# Screening data, single-dose tests

Sequences of proteins named here, by UniProt entry; tags and fusion partners are left off.
UniProt P9WFT3, whole entry: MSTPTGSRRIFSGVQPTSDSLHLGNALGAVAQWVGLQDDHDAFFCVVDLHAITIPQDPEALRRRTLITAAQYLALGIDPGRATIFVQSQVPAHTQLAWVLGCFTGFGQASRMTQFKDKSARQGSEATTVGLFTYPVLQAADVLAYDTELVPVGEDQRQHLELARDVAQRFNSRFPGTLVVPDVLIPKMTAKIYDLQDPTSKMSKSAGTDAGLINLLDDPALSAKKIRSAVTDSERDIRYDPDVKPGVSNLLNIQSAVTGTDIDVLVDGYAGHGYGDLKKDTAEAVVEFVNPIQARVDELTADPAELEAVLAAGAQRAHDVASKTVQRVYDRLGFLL
UniProt I6X8D2, whole entry: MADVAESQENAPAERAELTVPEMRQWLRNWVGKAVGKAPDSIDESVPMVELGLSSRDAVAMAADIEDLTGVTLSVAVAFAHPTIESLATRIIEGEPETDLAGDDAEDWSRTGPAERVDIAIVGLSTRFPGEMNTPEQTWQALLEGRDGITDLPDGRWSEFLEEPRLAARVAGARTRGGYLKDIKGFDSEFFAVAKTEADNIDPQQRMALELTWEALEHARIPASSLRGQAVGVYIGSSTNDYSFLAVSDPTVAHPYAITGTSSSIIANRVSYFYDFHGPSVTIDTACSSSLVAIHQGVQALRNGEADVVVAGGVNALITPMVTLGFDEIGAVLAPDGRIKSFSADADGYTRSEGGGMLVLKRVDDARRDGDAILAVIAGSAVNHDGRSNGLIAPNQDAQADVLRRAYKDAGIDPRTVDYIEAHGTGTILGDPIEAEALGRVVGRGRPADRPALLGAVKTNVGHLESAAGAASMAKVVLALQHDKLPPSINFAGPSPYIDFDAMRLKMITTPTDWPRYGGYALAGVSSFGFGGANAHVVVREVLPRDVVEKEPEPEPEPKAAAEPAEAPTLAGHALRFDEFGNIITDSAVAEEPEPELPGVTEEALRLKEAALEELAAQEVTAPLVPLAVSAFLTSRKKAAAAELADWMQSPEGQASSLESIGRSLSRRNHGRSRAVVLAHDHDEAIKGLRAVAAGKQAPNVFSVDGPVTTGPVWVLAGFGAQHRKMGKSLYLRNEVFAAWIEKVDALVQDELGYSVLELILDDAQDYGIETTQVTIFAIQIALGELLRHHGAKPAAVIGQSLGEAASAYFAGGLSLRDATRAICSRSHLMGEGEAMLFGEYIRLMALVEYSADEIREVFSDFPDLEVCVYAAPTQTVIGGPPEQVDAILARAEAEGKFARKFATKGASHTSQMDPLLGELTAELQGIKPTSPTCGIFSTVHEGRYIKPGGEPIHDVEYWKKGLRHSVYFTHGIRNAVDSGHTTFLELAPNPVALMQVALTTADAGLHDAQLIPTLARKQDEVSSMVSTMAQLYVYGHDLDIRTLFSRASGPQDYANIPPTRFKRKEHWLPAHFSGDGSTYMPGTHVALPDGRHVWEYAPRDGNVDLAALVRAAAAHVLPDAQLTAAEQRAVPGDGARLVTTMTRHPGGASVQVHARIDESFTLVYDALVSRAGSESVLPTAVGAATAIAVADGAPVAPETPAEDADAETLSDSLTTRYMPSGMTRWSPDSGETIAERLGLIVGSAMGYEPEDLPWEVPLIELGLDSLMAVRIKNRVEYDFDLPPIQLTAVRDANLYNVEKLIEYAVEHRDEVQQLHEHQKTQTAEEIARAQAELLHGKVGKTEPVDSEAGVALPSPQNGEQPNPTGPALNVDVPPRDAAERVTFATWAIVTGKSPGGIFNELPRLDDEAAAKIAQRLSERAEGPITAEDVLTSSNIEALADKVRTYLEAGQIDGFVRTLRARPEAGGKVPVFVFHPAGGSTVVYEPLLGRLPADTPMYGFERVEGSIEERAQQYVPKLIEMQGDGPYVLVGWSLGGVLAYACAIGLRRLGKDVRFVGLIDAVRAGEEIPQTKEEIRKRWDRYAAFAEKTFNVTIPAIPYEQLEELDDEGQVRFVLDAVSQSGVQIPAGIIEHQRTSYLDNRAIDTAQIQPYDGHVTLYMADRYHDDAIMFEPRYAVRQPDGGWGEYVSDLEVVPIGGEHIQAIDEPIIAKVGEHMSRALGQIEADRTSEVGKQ
UniProt P9WNZ1, whole entry: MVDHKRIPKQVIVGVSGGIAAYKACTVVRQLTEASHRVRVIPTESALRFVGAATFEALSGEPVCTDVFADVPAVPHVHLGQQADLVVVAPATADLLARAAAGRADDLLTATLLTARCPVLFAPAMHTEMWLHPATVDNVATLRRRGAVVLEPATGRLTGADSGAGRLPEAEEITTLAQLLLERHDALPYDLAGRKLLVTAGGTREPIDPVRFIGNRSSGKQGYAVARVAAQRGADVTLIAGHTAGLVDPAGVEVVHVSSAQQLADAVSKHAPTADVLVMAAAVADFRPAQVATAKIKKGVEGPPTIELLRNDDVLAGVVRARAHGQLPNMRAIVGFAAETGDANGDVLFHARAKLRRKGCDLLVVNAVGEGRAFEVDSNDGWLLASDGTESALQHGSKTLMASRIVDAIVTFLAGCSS

MtTrpRS: 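Enzyme assay of tryptophanyl-tRNA synthetase; the read-out is not stated. Target: Tryptophan-tRNA ligase, Mycobacterium tuberculosis (UniProt P9WFT3). Concentration: 10 µM. Direction is not recorded; retested compounds ran higher, which suggests that high means inhibition. Size under these conditions: about 65,000 compounds, about 64 of them at 50% or above in at least one test.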
Pks13 thioesterase: 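Enzyme assay of the thioesterase domain of polyketide synthase 13; the read-out is not stated. Target: Polyketide synthase Pks13, Mycobacterium tuberculosis (UniProt I6X8D2). Tested at 30 µM. The record gives no direction; the compounds picked for IC50 retests had high values, so higher reads as stronger inhibition. Size under these conditions: about 67,000 compounds, about 300 of them at 50% or above in at least one test.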
CoaBC: 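Coenzyme A biosynthesis protein CoaBC, Mycobacterium tuberculosis (UniProt P9WNZ1). Enzyme assay of CoaBC with a phosphate dye (Biomol Green) read at 650 nm. Concentration: 30 µM. Higher reads as stronger inhibition, judged from the few compounds that gave an IC50. Most strong results did not repeat in a second test. Size under these conditions: about 67,000 compounds, about 40 of them at 50% or above in at least one test.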

Results are given as percent effect. How 0% and 100% were set is not recorded. Most values in the screen are low, and negative values occur. The compounds are a random part of those screened. A dash means the value is not listed here; it may have been measured.

SMILES,MtTrpRS,Pks13 thioesterase,CoaBC
CN(CCc1ccccn1)C(=O)c1ccccc1F,-3.307%,-1.147%,-0.7673%
COc1ccc(CN2CCCC2)cc1Oc1cccc(C#N)n1,-0.8974%,-5.778%,-4.668%
Cc1noc(-c2ccnc(Oc3ccccc3CN3CCCCC3)c2)n1,-0.6441%,-12.32%,-5.411%
C[C@H](NC(=O)c1cccc(CCC(C)(C)O)c1)C(N)=O,-4.776%,54.04%,-7.329%
CCc1nc(C2CCCN2C(=O)CCc2cccs2)no1 (configuration not stated),-2.818%,-8.437%,4.722%
CC(=O)N1C[C@H]2CN(CC3CC3)C(=O)[C@H]2C1,-4.608%,-18.58%,3.308%
CCCNC(c1ccc(F)cc1)c1cccnc1 (configuration not stated),4.895%,-10.79%,5.443%
COCCOCC(=O)NC(C#N)c1cc(Cl)cc(Cl)c1 (configuration not stated),-4.124%,-9.398%,-3.722%
N#Cc1nccnc1N1CCN(CCOCc2ccccc2)CC1,-2.221%,-31.64%,1.985%
O=C1N(CCCc2ccccc2)CCCC1(O)CN1CCC(CO)CC1 (configuration not stated),2.902%,-,-8.584%
CC1(C)CNC(=O)CN(C(=O)CCc2ccccc2)C1,-,15.88%,0.3681%
Cn1cc(C(=O)N2C[C@H]3C[C@H](Oc4ccccc4)C[C@H]3C2)cn1,-1.302%,3.324%,-0.7177%
COC1CCN(C(=O)Cn2ccc3ccccc32)CC1,-5.851%,-3.805%,1.48%
O=C(COc1ccccc1Cl)N1CCCC(n2ccnc2)C1 (configuration not stated),-2.215%,-38.83%,1.877%
CCOc1cccc(COC(=O)c2cc(C)on2)n1,1.322%,1.082%,4.463%
CC(C)CN1CCC(NC(=O)N(C)Cc2csc3ccccc23)CC1,6.173%,-5.552%,5.353%
O=C(c1ccc2cccc(F)c2n1)N1CCN(CCn2cccc2)CC1,-4.724%,11.43%,-0.3654%
O=C(Cc1ccccn1)N1CCC2(CC1)CN(c1ncccn1)CCO2,1.895%,-2.351%,4.574%
O=C(NCc1cc[nH]n1)NCC(O)c1ccc(F)c(F)c1 (configuration not stated),-0.7787%,-8.39%,-2.727%
CC(C)c1ccc(S(=O)(=O)NC2CCN(CC(F)(F)F)C2)cc1 (configuration not stated),0.7988%,0.05323%,-0.7299%
O=C1CCC(=O)N1Cc1ccc(C(=O)N2CCCC2c2cccs2)cc1 (configuration not stated),5.591%,-6.304%,1.493%
CNc1cc(C)nc(N2CCC3(CC2)[C@H](O)C[C@@H]3OCCN(C)C)n1,-3.271%,-1.005%,-15.89%
CN(C)Cc1cnc(CC2CCN(CCc3ccccc3)CC2)cn1,-3.312%,1.402%,2.913%
CSCC(=O)N1CCCC(n2ccnc2C(C)C)C1 (configuration not stated),-2.827%,-4.289%,4.508%
Cc1occc1CNC(=O)N(CCCO)C1CCc2ccccc21 (configuration not stated),0.08446%,-15.62%,3.781%
CCc1cc(N(C)CCCO)n2nccc2n1,3.543%,-9.165%,9.307%
COc1ccnc(N2CCCN(C(=O)CCc3cnn(C)c3)CC2)n1,0.5038%,-15.38%,-3.672%
CCS(=O)(=O)N1CCc2cc(C(=O)NC)c(N(C)C)nc2CC1,-3.319%,-9.177%,3.268%
O=C(C1CC1)N1CCC2(COCc3cnc(N4CCOCC4)nc32)C1 (configuration not stated),3.043%,4.143%,0.7519%
Cc1nccc(CNS(=O)(=O)N2CCCC2c2ccc(C)o2)n1 (configuration not stated),-3.926%,-33.62%,7.692%
CCCSc1ncc(CN(C)CCN2CCCCC2)cn1,6.223%,-3.584%,12.88%
Cc1ccc(NC(=O)NCCn2cnc(C)c(C)c2=O)cc1F,-3.128%,-13.96%,6.163%
CCN1CCN(c2ccccc2NC(=O)N(C)C2CCSC2)CC1 (configuration not stated),3.151%,-32.39%,2.02%
Cc1cccc(CN2CCN(c3ncnc4[nH]ccc34)CC2CCO)n1 (configuration not stated),-7.547%,-24.91%,7.563%
O=C(c1ccc(C(F)(F)F)cc1)C1CCCN(C(=O)Cn2cnnn2)C1 (configuration not stated),1.06%,-3.357%,9.13%
CSc1nccn1-c1cccc(C(=O)NCCN2CCS(=O)(=O)CC2)c1,-5.062%,-2.898%,3.448%
CC1CN(C)c2ccccc2N(C(=O)c2c[nH]c(C(C)C)n2)C1 (configuration not stated),0.05974%,-42.48%,0.8872%
Cc1ncc(COc2cccc3c2NC(=O)CO3)s1,-1.012%,-25.44%,2.532%
COc1ccc(-c2cccc(CC3(C(=O)O)CCOCC3)c2)cc1,-,18.7%,-7.843%
CN(C)C(=O)CN1CCC2(CCCN(Cc3ccoc3)C2)C1=O (configuration not stated),0.9856%,6.952%,1.607%
Cc1nc2c(c(NC(C)C)n1)CCN(C(=O)c1ccno1)CC2,-0.9168%,-29.9%,-5.833%
CC(=O)Nc1cccc([C@H]2C[C@@H](NC(C)=O)CCO2)c1,21.5%,-10.6%,0.7398%
CN(C)C(=O)N1C[C@@H]2CC[C@H](C1)N(Cc1nnc(C3CC3)o1)C2,4.466%,-7.202%,-0.241%
Cc1cccc(OCCC(=O)N2CCN(S(=O)(=O)N(C)C)CC2)c1C,0.3934%,-53.19%,1.285%
CS(=O)(=O)CCSCc1ccc(Br)c(F)c1,2.02%,-2.592%,-3.265%
CC(C)c1nsc(N2CCn3c(nnc3-c3ccccc3)C2)n1,3.177%,-13.36%,-4.762%
CS(=O)(=O)NCc1cc2n(n1)CCCN(Cc1ccc(Cl)s1)C2,1.458%,1.316%,-0.3968%
CN(CCc1ccccn1)c1cc(N2CCCCC2)ncn1,-5.719%,-10.42%,1.707%
Cc1nc(-n2nc(C3CC3)cc2NC(=O)C(C)C)[nH]c(=O)c1C,-4.326%,-5.87%,-2.043%
COc1ccc(NC(=O)N2CCCCCC2c2ccncc2)cn1 (configuration not stated),3.011%,-15.78%,4.104%
Cc1nn(C2CCS(=O)(=O)C2)c(O)c1Cc1ccccc1Cl (configuration not stated),2.871%,-28.62%,4.293%
Cc1nc(CN2C(=O)COC3(CCN(Cc4ccsc4)CC3)C2C)cs1 (configuration not stated),4.653%,-0.8123%,8.239%
CCN(CC)C(=O)c1ccc(COc2ccccc2C#N)o1,-4.159%,-51.9%,-6.612%
COc1ccccc1CN(Cc1cccnc1)Cc1nccs1,-2.918%,-23.67%,-14.61%
COCC(=O)N1Cc2nc3c(C)c(-c4cccs4)nn3c(O)c2C1,5.657%,-6.056%,5.936%
COc1ccc(-c2nnc(SC(C)C(=O)NC3CC3)[nH]2)c(OC)c1 (configuration not stated),0.5297%,-,-0.6748%
CC(C)CN1C(=O)CC[C@H]2CN(C(=O)Cn3ccccc3=O)CC[C@H]21,-0.3003%,-7.501%,0.1233%
CCn1nccc1CNC(=O)Cn1cc2c(n1)c(C)nn2C(C)C,0.06473%,-7.372%,0.7229%
CCc1nc(C2CCCN2CCCc2nc3ccccc3o2)no1 (configuration not stated),-4.802%,-5.499%,-25.49%
Cc1ccc(-c2noc(CN3CCc4cncnc4C3)n2)cc1,13.94%,-19.73%,1.023%
CN(Cc1ccc(Cl)cc1)C(=O)Nc1cnn(CC(N)=O)c1,8.022%,21.94%,-4.114%
CCOC[C@@]12CCC[C@@H]1CN(C(=O)c1ccc(OC)cc1)C2,-,-38.04%,-4.198%
Cc1nc2c(c(N3CC=CC3)n1)CCN(Cc1ccoc1)CC2,-4.557%,-1.437%,1.818%
CN1CCN(c2nc(-c3cnn(C)c3)cs2)CC1,-1.57%,-17.85%,5.325%
O=C1CO[C@@H]2CN(Cc3ccsc3)C[C@H]2N1Cc1ccncc1,1.569%,-16.1%,6.303%
CCOC(=O)NC(CNC(=O)c1cccc(C)n1)CC(C)C (configuration not stated),5.189%,-19.99%,9.442%
CC(C)c1nn(C)c(N(C)C)c1CNCc1ccccc1CN(C)C,6.761%,-4.525%,-2.128%
CNC(=O)C1CN(C)CCN1c1nc(C)cc(C)n1 (configuration not stated),11.21%,-19.05%,6.068%
O=C(NCCCSC1CCCCC1)C1NCCc2[nH]cnc21 (configuration not stated),-1.816%,-14.18%,-11.09%
CC(C)Cc1cc(C(=O)N2CCCC(n3cncn3)C2)[nH]n1 (configuration not stated),-1.852%,-5.751%,5.483%
CN(C)CCN1C(=O)CCC12CCN(C(=O)c1cccnc1)CC2,-1.908%,-2.622%,0.4837%
CCOCc1ccc(NC(=O)N2CCCC2c2nncn2C)cc1 (configuration not stated),-2.617%,-3.399%,-1.651%

Once more, the final 4:

SMILES	MtTrpRS	Pks13 thioesterase	CoaBC
O=C(NCCCSC1CCCCC1)C1NCCc2[nH]cnc21 (configuration not stated)	-1.816%	-14.18%	-11.09%
CC(C)Cc1cc(C(=O)N2CCCC(n3cncn3)C2)[nH]n1 (configuration not stated)	-1.852%	-5.751%	5.483%
CN(C)CCN1C(=O)CCC12CCN(C(=O)c1cccnc1)CC2	-1.908%	-2.622%	0.4837%
CCOCc1ccc(NC(=O)N2CCCC2c2nncn2C)cc1 (configuration not stated)	-2.617%	-3.399%	-1.651%

From ChEMBL document CHEMBL3988442, “University of Dundee, Small-Polar-MMV Screening Library” (2021).